These are yes or no findings as the source states them, for the method shown. In cells and extracts the contact can be indirect. Here binding means that the protein was enriched with, or labelled near, the bait; the list need not be complete.
Target: human STIM1 C-terminally tagged with BioID construct (STIM1-BioID) (human) (UniProt Q13586)
Test: proximity labelling; BioID: STIM1-BioID stably expressed in MEF, 10 µM biotin in the media for 16 h, lysis in RIPA buffer, biotinylated proteins collected on streptavidin beads, LC/MS/MS with label-free quantification, four replicates, against control MEF

Chains of the proteins cited; added tags and fusions are not shown. Residues count along the entry.
UniProt Q13586, residues 23-685: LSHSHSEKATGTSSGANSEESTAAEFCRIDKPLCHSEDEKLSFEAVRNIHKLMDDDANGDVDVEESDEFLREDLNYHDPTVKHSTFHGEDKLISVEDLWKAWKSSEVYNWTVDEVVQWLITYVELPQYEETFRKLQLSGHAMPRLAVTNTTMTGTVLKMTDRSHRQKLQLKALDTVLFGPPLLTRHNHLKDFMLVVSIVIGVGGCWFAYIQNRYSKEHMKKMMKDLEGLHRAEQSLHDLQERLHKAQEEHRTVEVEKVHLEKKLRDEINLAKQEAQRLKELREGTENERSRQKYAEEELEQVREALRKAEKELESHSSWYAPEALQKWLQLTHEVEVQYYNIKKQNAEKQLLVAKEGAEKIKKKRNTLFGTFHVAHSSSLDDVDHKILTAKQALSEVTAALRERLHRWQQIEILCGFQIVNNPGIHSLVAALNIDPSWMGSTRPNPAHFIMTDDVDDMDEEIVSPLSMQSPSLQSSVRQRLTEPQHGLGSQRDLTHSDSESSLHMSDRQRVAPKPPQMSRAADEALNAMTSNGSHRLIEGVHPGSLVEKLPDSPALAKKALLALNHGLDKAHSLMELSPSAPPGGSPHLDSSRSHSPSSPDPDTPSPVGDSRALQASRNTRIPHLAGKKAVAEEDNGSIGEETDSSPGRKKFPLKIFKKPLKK
UniProt P83093, residues 15-746: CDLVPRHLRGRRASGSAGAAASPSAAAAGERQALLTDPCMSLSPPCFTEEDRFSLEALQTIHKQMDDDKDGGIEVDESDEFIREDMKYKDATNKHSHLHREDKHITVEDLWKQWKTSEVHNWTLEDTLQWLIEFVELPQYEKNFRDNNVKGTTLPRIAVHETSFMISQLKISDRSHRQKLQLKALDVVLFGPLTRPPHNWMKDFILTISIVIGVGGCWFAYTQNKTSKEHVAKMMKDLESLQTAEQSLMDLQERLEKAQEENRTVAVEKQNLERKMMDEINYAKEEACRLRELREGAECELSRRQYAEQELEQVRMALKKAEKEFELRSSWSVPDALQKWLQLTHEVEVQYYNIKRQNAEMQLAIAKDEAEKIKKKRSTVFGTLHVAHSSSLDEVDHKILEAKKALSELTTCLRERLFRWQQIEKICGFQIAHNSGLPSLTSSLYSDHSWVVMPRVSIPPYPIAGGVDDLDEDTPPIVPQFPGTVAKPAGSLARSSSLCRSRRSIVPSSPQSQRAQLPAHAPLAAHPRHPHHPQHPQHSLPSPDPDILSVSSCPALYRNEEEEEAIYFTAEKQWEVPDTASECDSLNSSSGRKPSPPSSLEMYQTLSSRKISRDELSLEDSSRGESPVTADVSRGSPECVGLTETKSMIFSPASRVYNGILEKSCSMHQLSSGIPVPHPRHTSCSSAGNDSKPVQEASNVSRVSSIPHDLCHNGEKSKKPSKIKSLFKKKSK

binding: binds
Substance: STIM2 (from UniProt P83093 15-746)
